In PubChem BioAssay AID540276 (National Center for Advancing Translational Sciences (NCATS), 2011):
In all, about 300,000 compounds went through this assay and about 5,400 (1.8%) were called active. The inconclusive results got no clear call from the source; some entries with a clear call stand among them for comparison. Calls follow the shape of the full dose curve; tested in HEK293 cells. A potency beside an inconclusive call is a rough fit, not a confirmed value.

Assay: qHTS for inhibitors of binding or entry into cells for Marburg Virus
Conditions: Marburg virus pseudotyped entry inhibition, cell reporter; series mostly up to 37.8 µM
Potency is read from the fitted curve at half-maximal effect.

SMILES | Potency
O=C(Cn1cc(S(=O)(=O)N2CCN(c3ccccc3F)CC2)c2ccccc2c1=O)Nc1cccc(C(F)(F)F)c1 | inconclusive: 15.8 µM [inhibitor, single point]
CCc1ccccc1NC(=O)Cn1cccc1C1=NC(c2ccccc2)CO1 (stereo not given) | inconclusive: 7.08 µM [inhibitor, full curve]
N#Cc1ccccc1NC(=O)C1CC(=O)N(c2ccc3c4c(cccc24)CC3)C1 (stereo not given) | inconclusive: 16.4 µM [inhibitor, partial curve, poor fit]
Cc1ccc(-c2nc3sc4c(c3c(=O)n2N)CCCC4)cc1 | inconclusive: 29.1 µM [inhibitor, single point]
COc1cc(C(=O)Nc2ccc(Cl)c(-c3nc4ncccc4o3)c2)cc(OC)c1OC | inconclusive: 5.01 µM [inhibitor, full curve]
Cc1csc2ncc(C(=O)Nc3ccon3)c(=O)n12 | inactive
CC(CNC(=O)c1ccc(CSc2nc3ccncc3n2Cc2cccc(F)c2)cc1)c1ccccc1 (stereo not given) | inconclusive: 35.5 µM [inhibitor, single point]
CC(Nc1cccc([N+](=O)[O-])c1)C(=O)Nc1ccc(S(=O)(=O)N2CCCC2)cc1 (stereo not given) | inconclusive: 35.5 µM [inhibitor, single point]
Cc1sc(NC(=O)c2ccc(=O)n(C)n2)nc1-c1ccccc1 | inactive
CCc1ccccc1NC(=O)c1ccoc1C | inconclusive: 14.6 µM [activator, partial curve, poor fit]
Cc1ccc(-c2cc(C(F)(F)F)n3nc(C(=O)Nc4sc5c(c4C#N)CCC(C)C5)cc3n2)cc1 (stereo not given) | inactive
CCC(C)NC(C(=O)Nc1ccc(Cl)c([N+](=O)[O-])c1)c1ccccc1 (stereo not given) | inconclusive: 35.5 µM [inhibitor, single point]
O=C(Nc1ccccc1-c1ccccc1)c1cnccn1 | inconclusive: 2.82 µM [activator, partial curve]
O=C(Cc1c(F)cccc1Cl)Nc1nccs1 | inactive
CC(C)(C)NC(=O)C(c1ccncc1)N(C(=O)Cn1nnc(-c2ccc(F)cc2)n1)c1cccc(F)c1 (stereo not given) | inconclusive: 35.5 µM [inhibitor, single point]
Cc1nn(C)c(Oc2ccccc2)c1CCNS(=O)(=O)c1ccc(F)cc1 | inconclusive: 10 µM [inhibitor, partial curve, poor fit]
COc1ccc(C(=O)N/N=C/c2ccc(OC)c(OS(=O)(=O)c3ccccc3)c2)cc1 | inconclusive: 10 µM [inhibitor, partial curve, poor fit]
Cc1ccc(C)c2[nH]c(=O)c(CN(CCN3CCCC3)C(=O)Nc3ccc(F)cc3)cc12 | inconclusive: 12.6 µM [inhibitor, partial curve, poor fit]
CCOC(=O)c1cc(-c2ccccc2)n[nH]1 | inactive
CC(C)(C)c1cc(C(=O)N/N=C/c2ccccc2O)n(-c2ccccc2)n1 | inconclusive: 5.62 µM [inhibitor, full curve, poor fit]

A second format for some results above:
N#Cc1ccccc1NC(=O)C1CC(=O)N(c2ccc3c4c(cccc24)CC3)C1 (stereo not given)
  Potency: inconclusive: 16.4 µM [inhibitor, partial curve, poor fit]
CCC(C)NC(C(=O)Nc1ccc(Cl)c([N+](=O)[O-])c1)c1ccccc1 (stereo not given)
  Potency: inconclusive: 35.5 µM [inhibitor, single point]
O=C(Cc1c(F)cccc1Cl)Nc1nccs1
  Potency: inactive

Next compounds

SMILES | Potency
CC1CCN(C(=O)c2ccc(S(=O)(=O)Cc3cc(F)ccc3F)c([N+](=O)[O-])c2)CC1 | inconclusive: 15.8 µM [inhibitor, partial curve, poor fit]
COc1ccccc1C(c1nnnn1Cc1ccccc1)N1CCN(C2CCCC2)CC1 (stereo not given) | inconclusive: 28.2 µM [inhibitor, single point]
CCNC(=S)N1N=C2c3ccccc3CCC2C1c1ccc(F)cc1 (stereo not given) | inconclusive: 12.6 µM [inhibitor, partial curve, poor fit]
COc1cccc(Nc2nc(N)c([N+](=O)[O-])c(NCc3ccco3)n2)c1 | inconclusive: 7.08 µM [inhibitor, partial curve, poor fit]
Cc1nn2c(=O)c(NC(=O)c3ccc(Cl)cc3)cnc2s1 | inconclusive: 39.8 µM [activator, single point]
COC(=O)CSc1nnc(SCc2ccc(Cl)cc2)s1 | inconclusive: 6.51 µM [inhibitor, single point]
O=C(C1CCCN(S(=O)(=O)c2ccc(Br)s2)C1)N1CCCCCC1 (stereo not given) | inactive
Cc1cc(N2CCCCC2)nc(SCc2ccc(C#N)cc2)n1 | inconclusive: 29.1 µM [inhibitor, single point]
CNc1nc(OC)nc(N(C#N)CN2C(=O)c3ccccc3S2(=O)=O)n1 | inconclusive: 22.4 µM [inhibitor, single point]
COc1cc(-c2csc(CCn3nc(C)cc3C)n2)cc(OC)c1OC | inconclusive: 10 µM [inhibitor, partial curve, poor fit]
S=c1[nH]nc(COc2ccccc2)n1/N=C/c1ccc(Cl)cc1 | inactive
Cc1ccc(S(=O)(=O)N(C)C)cc1NS(=O)(=O)c1ccc(Cl)s1 | inactive
Cn1c(NC(=O)/C=C/c2c(F)cccc2Cl)cc(=O)n(C)c1=O | inconclusive: 0.562 µM [activator, full curve, poor fit]
CCc1nc(N2CCNCC2)c(C#N)c2c1CSC(C)(C)C2 | inconclusive: 14.6 µM [inhibitor, single point]
CC(CCC#N)[N+](=O)[O-] (stereo not given) | inconclusive: 0.0188 µM [inhibitor, full curve, poor fit]
CC(=O)OC[C@H]1O[C@H](CCON=C(C)CCC(=O)OC[C@H]2O[C@H](C#Cc3ccccc3)C=C[C@H]2Oc2ccc(C)cc2)C=C[C@H]1OC(C)=O | inactive
CCc1ccc2[nH]c(=O)c(CN(CCCN3CCOCC3)C(=O)Nc3cccc(Cl)c3)cc2c1 | active: 17.8 µM
CC(NC(=O)c1cccc(S(=O)(=O)N2CCN(Cc3ccccc3)CC2)c1)c1ccc(Br)cc1 (stereo not given) | inconclusive: 12.6 µM [inhibitor, partial curve, poor fit]
CC(=O)CSc1nc2ccc(Nc3nc(N4CCOCC4)nc(N4CCOCC4)n3)cc2s1 | inconclusive: 2.91 µM [inhibitor, partial curve, poor fit]
Cc1cc(C)c(S(=O)(=O)/N=C2\C=C(NS(=O)(=O)c3ccccc3)C(=O)c3ccccc32)c(C)c1 | inconclusive: 5.62 µM [inhibitor, single point]
